The list shows a part of the results. Further columns of the screen follow, without active or inactive calls. The list favours compounds with an active or inconclusive main result. Potencies come from curve fits of mixed quality, noted in brackets.
Experiment: qHTS Assay for Modulators of Lamin A Splicing
Settings: HeLa LMNA splicing GFP/RFP minigene ratio, 48 h
Summary of the method: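 S3 HeLa stable clones carrying a lamin A-EGFP splicing minigene plus DsRed2 were seeded at 600 cells/well in Opti-MEM with 2% FBS, pin-dosed and incubated 48 h at 37°C. Acumen cytometry (488 nm) gave the GFP/RFP total-intensity ratio.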

[1] = measured here: RFP viability control channel
[2] = measured here: GFP splicing reporter channel

| Compound | AC50 [1] | AC50 [2] |
| --- | --- | --- |
| COC(=O)c1ccccc1NC(=O)c1ccc2nc(CCc3ccccc3)oc2c1 | 10 µM [rising, partial curve] | – |
| CN(C)c1ccc(/C=C(/C(=O)c2ccc(Cl)cc2Cl)n2cncn2)cc1 | 17.8 µM [rising, single point] | – |
| COc1cccc(Cn2c(=O)c(-c3ccc(F)cc3)nc3cnc(OC)nc32)c1 | 28.2 µM [falling, single point] | 25.1 µM [falling, partial curve] |
| Cc1ccc(N=Cc2c(O)ccc3ccccc23)cc1F | 35.5 µM [rising, single point] | – |
| CC(=O)N(c1ccccc1C)C1CCCC1 | 0.112 µM [rising, single point] | – |
| Cc1cccc(NC(=S)NCCC(c2ccccc2)c2ccccc2)c1 | 25.1 µM [rising, partial curve] | 8.91 µM [rising, partial curve] |
| Cc1cc(C)cc(N(CCC#N)C(=O)CSC2=Nc3ccccc3C3CC=NN23)c1 (stereo not given) | 35.5 µM [falling, partial curve] | 14.1 µM [falling, partial curve, poor fit] |
| Cn1nc(C(F)(F)F)c2cc(NC(=O)OCc3ccc(F)cc3)sc21 | 20 µM [rising, single point] | – |
| O=C(Nc1ccccc1F)Nc1cc(S(=O)(=O)N2CCOCC2)ccc1N1CCCC1 | 1 µM [rising, partial curve] | 0.316 µM [rising, full curve, poor fit] |
| C=CCn1c(=O)c(C(=O)NCCc2ccccc2)c(O)c2ccccc21 | 35.5 µM [rising, single point] | – |
| Cc1ccc(-c2cc3nc(-c4ccc(Br)cc4)cc(N)n3n2)cc1 | 17.8 µM [rising, single point] | – |
| CC(=O)Nc1c(Nc2ccccc2)c2ccccc2oc1=O | – | 0.282 µM [rising, partial curve, poor fit] |
| Cc1ccc(Cl)cc1NC(=O)CSc1nc2ccccc2nc1Cc1ccccc1 | 1.12 µM [rising, full curve] | 0.794 µM [rising, full curve, poor fit] |
| O=C(NCCc1csc(-c2cccnc2)n1)c1cccc2ccccc12 | 4.47 µM [rising, partial curve, poor fit] | – |
| Cc1ccc(S(=O)(=O)N2CCC(=O)N(CCOC(=O)Nc3cc(C)cc(C)c3)CC2)cc1 | 22.4 µM [rising, single point] | – |
| COc1ccc(NC(=S)SC)cc1OC | – | 10 µM [rising, single point] |
| Cc1cc(C)n(-c2cc(N3CCN(S(=O)(=O)c4ccc(Br)cc4)CC3)ccc2[N+](=O)[O-])n1 | 35.5 µM [rising, partial curve] | 12.6 µM [rising, partial curve, poor fit] |
| O=C(CN(c1cccc(C(F)(F)F)c1)S(=O)(=O)c1ccc(Cl)c([N+](=O)[O-])c1)NCc1ccccc1Cl | 12.6 µM [falling, single point] | 11.2 µM [falling, partial curve, poor fit] |
| Cc1ccc(N/C=C/C(=O)C(C)(C)C)c(O)c1 | 15.8 µM [rising, single point] | – |
| CC(/C=N/NC(=O)c1cc(C(C)C)[nH]n1)=C\c1ccccc1 | 12.6 µM [rising, single point] | – |
| CCCCCc1nc2sc3c(c2c(=O)n1NC(=O)c1ccc([N+](=O)[O-])cc1)CC(C)(C)OC3 | 5.01 µM [rising, partial curve] | – |
| COc1cc(/C=N/NC(=O)c2cc(-c3ccccc3OC(C)C)nc3ccccc23)ccc1O | 8.91 µM [rising, partial curve] | 11.2 µM [rising, partial curve] |
| Cn1c(/C(C#N)=C/c2ccc(-c3ccc(S(N)(=O)=O)cc3)o2)nc2ccccc21 | 11.2 µM [falling, partial curve, poor fit] | 25.1 µM [falling, single point] |
| COc1cc(/C=N/OCC(=O)NC2CCS(=O)(=O)C2)ccc1OC(F)F (stereo not given) | 39.8 µM [falling, partial curve, poor fit] | – |
| OC(CNCC(c1ccc(Cl)cc1Cl)c1c[nH]c2ccccc12)c1ccccc1 (stereo not given) | 2.82 µM [falling, partial curve] | 2 µM [falling, partial curve] |
| N#Cc1cc2c(nc1SCc1cccnc1)CCCCC2 | 31.6 µM [rising, single point] | 12.6 µM [rising, single point] |
| CCOC(=O)N1CCC(NC(=O)c2cc3cc4cc(OC)ccc4nc3o2)CC1 | 22.4 µM [rising, single point] | – |

| Compound | AC50 [1] | AC50 [2] |
| --- | --- | --- |
| O=C(NC1CC(=O)N(c2cccc(F)c2)C1)c1cc2ccccc2o1 (stereo not given) | 0.00891 µM [falling, full curve, poor fit] | – |
| O=C(Nc1ccccc1C(F)(F)F)N1CCC(CN2CCc3ccccc3C2)CC1 | – | 0.02 µM [rising, full curve, poor fit] |
| Cc1cc(C)cc(-n2c(SCC(N)=O)nc3c([nH]c4ccccc43)c2=O)c1 | – | 39.8 µM [falling, partial curve, poor fit] |
| CCOc1ccccc1NC(=O)N1CCC(n2nnc3cc(C)ccc32)CC1 | 0.447 µM [rising, full curve, poor fit] | – |
| COc1ccc(OCC(=O)NNc2c3ccccc3nc3ccccc23)cc1 | 35.5 µM [falling, single point] | 35.5 µM [falling, single point] |
| CCCCN1C(=O)c2ccc(C(=O)NCCN3C(=O)S/C(=C\c4cccnc4)C3=O)cc2C1=O | 7.94 µM [rising, partial curve] | 8.91 µM [rising, partial curve] |
| Cc1cccc(NS(=O)(=O)c2ccc(C3CCCCC3)cc2)c1 | 3.98 µM [rising, partial curve] | 1.58 µM [rising, partial curve] |
| COc1ccc(Nc2ncnc3c2cnn3-c2ccc(C)cc2)cc1Cl | 14.1 µM [rising, partial curve, poor fit] | 0.0158 µM [rising, full curve, poor fit] |
| Cc1ccccc1CSc1nc2ccsc2c(=O)n1CCC(C)C | 20 µM [rising, single point] | – |
| O=C(O)c1ccc(NS(=O)(=O)c2ccc3c(c2)OCCCO3)cc1 | – | 0.0398 µM [rising, full curve, poor fit] |
| COc1cccc(CNCc2cccnc2)c1OCc1ccccc1 | 35.5 µM [falling, single point] | – |
| Cc1ccc(CNC(=O)c2ccc(CSCc3cccc(C)c3)o2)cc1 | 11.2 µM [rising, single point] | – |
| CCC(C(=O)NC1CCCC1)N(Cc1ccco1)C(=O)Cn1nnc(-c2ccc(C)cc2)n1 (stereo not given) | 22.4 µM [rising, single point] | 14.1 µM [rising, single point] |
| Cc1cccc(N(CC(=O)Nc2ccccc2F)S(C)(=O)=O)c1 | 1.41 µM [falling, full curve, poor fit] | – |
| O=C(/C=C/c1ccccc1)NCC(=O)N/N=C\c1cccnc1 | 0.00891 µM [falling, full curve, poor fit] | – |
| O=C(Nc1ccc(-n2nncc2-c2ccco2)cc1)c1cc2ccccc2oc1=O | 35.5 µM [falling, single point] | 20 µM [falling, single point] |
| Cc1cc(C)cc(-n2c(SCC(=O)N3CCOCC3)nc3c([nH]c4ccccc43)c2=O)c1 | – | 0.02 µM [rising, full curve, poor fit] |
| Cc1ccc(NS(=O)(=O)c2ccc3[nH]c4c(c3c2)CCCC4)cc1N(C)C | 35.5 µM [falling, single point] | 35.5 µM [falling, single point] |
| CC(C)CC(COCc1cccc(C(F)(F)F)c1)N1CCN(C(=O)c2cccc(C(F)(F)F)c2)CCC1=O (stereo not given) | 14.1 µM [rising, partial curve] | 11.2 µM [rising, partial curve] |
| COc1ccc(OCCC(=O)OCC(=O)NCc2ccc(F)cc2)cc1 | – | 0.0141 µM [falling, full curve] |
| Cc1nc2ccn(Cc3cccs3)c(=O)c2cc1C(=O)N1CCN(c2ccccc2F)CC1 | – | 0.00794 µM [falling, full curve, poor fit] |
| O=C(NC(C(=O)N/N=C/c1c2ccccc2cc2ccccc12)c1n[nH]c(=O)c2ccccc12)c1ccccc1 (stereo not given) | 20 µM [rising, single point] | – |
| CC(C)CC(=O)CC1(O)C(=O)Nc2ccccc21 (stereo not given) | 0.00501 µM [falling, full curve, poor fit] | 0.00355 µM [falling, full curve] |
| CCOC(=O)CC(=O)CSc1nc2ccsc2c(=O)n1Cc1ccccc1 | – | 20 µM [rising, partial curve, poor fit] |
| CCOC(=O)c1sc(C)c2c1NC(C)(c1ccccc1)NC2=O (stereo not given) | 8.91 µM [rising, partial curve, poor fit] | – |
| CCSc1nnc(NC(=O)C(NC(=O)c2ccc(Cl)cc2)C(C)C)s1 (stereo not given) | 15.8 µM [rising, single point] | 10 µM [rising, partial curve, poor fit] |
| COc1ccc(C(CCNCc2ccccc2F)c2ccc(F)cc2)cc1 (stereo not given) | – | 35.5 µM [falling, single point] |

Record cards, from the list above:
O=C(Nc1ccc(-n2nncc2-c2ccco2)cc1)c1cc2ccccc2oc1=O is listed as AC50 [1]: 35.5 µM [falling, single point]; AC50 [2]: 20 µM [falling, single point]
O=C(NC1CC(=O)N(c2cccc(F)c2)C1)c1cc2ccccc2o1 (stereo not given) is listed as AC50 [1]: 0.00891 µM [falling, full curve, poor fit]
CCSc1nnc(NC(=O)C(NC(=O)c2ccc(Cl)cc2)C(C)C)s1 (stereo not given) is listed as AC50 [1]: 15.8 µM [rising, single point]; AC50 [2]: 10 µM [rising, partial curve, poor fit]
COc1ccc(C(CCNCc2ccccc2F)c2ccc(F)cc2)cc1 (stereo not given) is listed as AC50 [2]: 35.5 µM [falling, single point]

Source: PubChem BioAssay AID1487 (National Center for Advancing Translational Sciences (NCATS), 2009)
